Our source for the binding values is article PMC5660093, “Structure of SgK223 pseudokinase reveals novel mechanisms of homotypic and heterotypic association” (Nature Communications, 2017).

Chains of the proteins cited; added tags and fusions are not shown.
UniProt Q9H792: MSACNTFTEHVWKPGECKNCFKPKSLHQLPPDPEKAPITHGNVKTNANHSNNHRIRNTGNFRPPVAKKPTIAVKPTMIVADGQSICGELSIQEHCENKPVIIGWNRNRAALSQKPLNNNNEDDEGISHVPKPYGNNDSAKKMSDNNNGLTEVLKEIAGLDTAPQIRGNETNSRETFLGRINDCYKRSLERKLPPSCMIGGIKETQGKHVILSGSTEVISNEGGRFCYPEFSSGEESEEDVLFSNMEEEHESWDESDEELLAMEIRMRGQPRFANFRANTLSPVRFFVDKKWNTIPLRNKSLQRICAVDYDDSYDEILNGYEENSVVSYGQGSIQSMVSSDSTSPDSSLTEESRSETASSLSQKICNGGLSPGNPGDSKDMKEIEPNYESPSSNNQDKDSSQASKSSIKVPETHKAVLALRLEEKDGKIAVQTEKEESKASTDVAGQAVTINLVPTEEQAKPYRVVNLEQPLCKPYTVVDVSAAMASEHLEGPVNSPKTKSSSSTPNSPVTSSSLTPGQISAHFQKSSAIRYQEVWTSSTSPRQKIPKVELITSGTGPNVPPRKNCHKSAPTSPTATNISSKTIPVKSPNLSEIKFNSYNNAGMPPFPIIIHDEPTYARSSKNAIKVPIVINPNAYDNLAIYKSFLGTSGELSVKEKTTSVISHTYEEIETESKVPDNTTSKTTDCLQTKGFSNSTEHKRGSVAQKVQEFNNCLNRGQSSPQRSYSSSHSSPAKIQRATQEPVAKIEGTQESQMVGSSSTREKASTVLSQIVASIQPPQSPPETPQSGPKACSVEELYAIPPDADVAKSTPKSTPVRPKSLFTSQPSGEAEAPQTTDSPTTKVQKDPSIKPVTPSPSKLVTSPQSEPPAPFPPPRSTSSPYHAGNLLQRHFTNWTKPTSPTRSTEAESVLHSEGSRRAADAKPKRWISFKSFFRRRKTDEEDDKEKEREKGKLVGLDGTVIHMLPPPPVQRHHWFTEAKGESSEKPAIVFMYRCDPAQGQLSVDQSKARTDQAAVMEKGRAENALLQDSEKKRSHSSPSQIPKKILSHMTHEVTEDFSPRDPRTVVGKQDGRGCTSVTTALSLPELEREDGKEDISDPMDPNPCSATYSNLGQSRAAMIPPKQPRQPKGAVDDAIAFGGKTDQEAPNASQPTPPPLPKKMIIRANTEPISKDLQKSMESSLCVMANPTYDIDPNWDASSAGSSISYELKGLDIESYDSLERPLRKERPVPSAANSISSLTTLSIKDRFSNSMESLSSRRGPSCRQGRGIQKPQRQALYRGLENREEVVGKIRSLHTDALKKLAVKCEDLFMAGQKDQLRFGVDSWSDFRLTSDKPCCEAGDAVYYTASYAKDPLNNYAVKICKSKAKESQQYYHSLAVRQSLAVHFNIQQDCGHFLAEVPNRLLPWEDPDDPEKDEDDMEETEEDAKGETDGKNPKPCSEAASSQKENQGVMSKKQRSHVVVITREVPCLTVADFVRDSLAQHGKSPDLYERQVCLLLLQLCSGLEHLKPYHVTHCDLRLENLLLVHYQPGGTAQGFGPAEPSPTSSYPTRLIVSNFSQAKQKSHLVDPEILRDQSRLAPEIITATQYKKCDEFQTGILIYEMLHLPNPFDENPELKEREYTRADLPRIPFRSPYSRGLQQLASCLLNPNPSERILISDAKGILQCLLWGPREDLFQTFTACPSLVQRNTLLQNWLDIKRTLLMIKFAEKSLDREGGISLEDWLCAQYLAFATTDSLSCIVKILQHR

The target of experiment [1] is T1, HA-tagged FL SgK223 L955A (MCF-10A SgK223 KO) (UniProt Q86YV5).
T1 sequence: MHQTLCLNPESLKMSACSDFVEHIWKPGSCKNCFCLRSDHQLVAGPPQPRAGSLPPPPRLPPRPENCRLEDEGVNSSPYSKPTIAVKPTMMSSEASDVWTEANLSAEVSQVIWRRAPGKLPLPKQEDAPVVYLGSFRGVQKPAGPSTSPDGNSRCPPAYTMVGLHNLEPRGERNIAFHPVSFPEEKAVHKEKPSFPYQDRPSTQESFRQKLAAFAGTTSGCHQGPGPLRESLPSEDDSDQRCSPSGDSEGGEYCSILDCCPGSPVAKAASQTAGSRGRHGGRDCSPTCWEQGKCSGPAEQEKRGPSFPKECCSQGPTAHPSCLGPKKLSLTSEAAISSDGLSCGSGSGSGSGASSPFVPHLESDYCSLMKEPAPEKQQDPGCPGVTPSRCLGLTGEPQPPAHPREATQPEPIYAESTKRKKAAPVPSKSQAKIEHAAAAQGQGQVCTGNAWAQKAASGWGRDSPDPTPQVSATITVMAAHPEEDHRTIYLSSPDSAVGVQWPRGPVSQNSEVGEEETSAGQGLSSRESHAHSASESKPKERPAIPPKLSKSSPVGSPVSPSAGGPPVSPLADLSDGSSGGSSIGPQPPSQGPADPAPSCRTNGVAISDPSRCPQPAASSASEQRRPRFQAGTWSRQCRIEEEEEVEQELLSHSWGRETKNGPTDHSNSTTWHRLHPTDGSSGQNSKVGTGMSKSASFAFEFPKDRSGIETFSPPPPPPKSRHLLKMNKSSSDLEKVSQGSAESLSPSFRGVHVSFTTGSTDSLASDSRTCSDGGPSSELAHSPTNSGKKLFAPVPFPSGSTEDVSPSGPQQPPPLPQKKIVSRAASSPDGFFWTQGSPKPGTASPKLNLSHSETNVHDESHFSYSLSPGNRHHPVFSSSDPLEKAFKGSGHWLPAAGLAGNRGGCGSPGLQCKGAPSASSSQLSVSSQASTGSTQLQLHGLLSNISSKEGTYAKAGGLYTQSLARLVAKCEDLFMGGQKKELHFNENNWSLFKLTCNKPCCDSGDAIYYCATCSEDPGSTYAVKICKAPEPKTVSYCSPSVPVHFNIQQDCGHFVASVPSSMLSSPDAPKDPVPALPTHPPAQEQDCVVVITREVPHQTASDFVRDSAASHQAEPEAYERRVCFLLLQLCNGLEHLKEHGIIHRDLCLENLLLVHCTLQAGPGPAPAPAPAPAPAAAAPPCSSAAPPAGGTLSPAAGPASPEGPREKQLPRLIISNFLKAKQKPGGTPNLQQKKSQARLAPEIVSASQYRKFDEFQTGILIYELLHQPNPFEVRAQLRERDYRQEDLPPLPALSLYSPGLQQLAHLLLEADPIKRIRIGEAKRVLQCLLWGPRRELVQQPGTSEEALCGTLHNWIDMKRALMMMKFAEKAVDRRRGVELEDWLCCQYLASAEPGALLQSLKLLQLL
Kind of experiment: co-IP; HA-tagged FL SgK223 WT or mutants expressed in MCF-10A SgK223 KO cells; immunoprecipitation with anti-HA, blot with anti-SgK269 for the endogenous protein.

Experiment [2] addresses T2, HA-tagged FL SgK223 I1243A (MCF-10A SgK223 KO) (UniProt Q86YV5).
T2 sequence: T1 sequence with A955L, I1243A
Described as above.

Substitutions are numbered along the chain they refer to. No constants are given. Whether binding was seen depends on the method and setting. In cells and extracts the contact can be indirect. Some results given as binding are weak or reduced against the parent protein; the word gives no strength. Where a sequence is shown, tags or fusion partners need not be part of it.

With “endogenous FL SgK269-WT (from UniProt Q9H792 1-1746)”, the binding entry is “no binding” in experiment [1] and “binds” in experiment [2].
